Test results from doi:10.1101/2025.04.12.648529.
Results are given in words; binding and its absence hold for the method and conditions named. Binding seen in cells or lysates may run through a third protein. A yes stands for co-enrichment or nearness to the bait. Other partners may have been found.

By UniProt entry, the sequences of proteins in these tests, tags left out.
UniProt Q1XH10, whole entry: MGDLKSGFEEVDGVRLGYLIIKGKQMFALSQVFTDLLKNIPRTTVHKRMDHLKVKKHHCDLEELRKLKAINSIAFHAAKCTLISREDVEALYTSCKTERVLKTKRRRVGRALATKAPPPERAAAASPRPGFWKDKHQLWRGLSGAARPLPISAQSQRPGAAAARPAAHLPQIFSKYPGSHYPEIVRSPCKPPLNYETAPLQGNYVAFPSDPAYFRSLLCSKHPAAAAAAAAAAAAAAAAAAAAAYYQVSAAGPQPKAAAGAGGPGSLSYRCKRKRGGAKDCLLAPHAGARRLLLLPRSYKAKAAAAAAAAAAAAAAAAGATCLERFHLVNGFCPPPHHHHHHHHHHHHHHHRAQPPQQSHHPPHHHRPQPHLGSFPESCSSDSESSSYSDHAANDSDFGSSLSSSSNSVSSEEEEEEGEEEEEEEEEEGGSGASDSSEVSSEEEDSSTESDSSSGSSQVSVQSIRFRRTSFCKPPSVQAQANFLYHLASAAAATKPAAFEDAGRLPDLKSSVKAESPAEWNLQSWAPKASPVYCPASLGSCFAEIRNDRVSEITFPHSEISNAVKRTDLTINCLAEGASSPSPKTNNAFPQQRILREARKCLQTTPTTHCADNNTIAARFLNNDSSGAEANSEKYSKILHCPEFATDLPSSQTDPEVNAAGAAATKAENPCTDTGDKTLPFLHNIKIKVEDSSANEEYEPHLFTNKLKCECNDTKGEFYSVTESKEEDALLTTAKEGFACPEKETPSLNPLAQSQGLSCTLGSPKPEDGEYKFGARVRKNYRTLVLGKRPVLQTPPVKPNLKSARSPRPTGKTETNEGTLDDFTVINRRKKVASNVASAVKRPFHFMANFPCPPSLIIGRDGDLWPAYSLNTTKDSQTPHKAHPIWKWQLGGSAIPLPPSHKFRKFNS

Molecular target: SKIDA1-3xFLAG (UniProt Q1XH10)
Test: affinity purification with mass spectrometry

Substance	binding
EED (from UniProt O75530 1-441)	binds
MTF2 (from UniProt Q9Y483 1-593)	binds
